Results are given in words; binding and its absence hold for the method and conditions named. In cells and extracts the contact can be indirect. Some binding calls cover weakened binding; strength is not graded here.

Chains of the proteins cited; added tags and fusions are not shown.
UniProt P40763: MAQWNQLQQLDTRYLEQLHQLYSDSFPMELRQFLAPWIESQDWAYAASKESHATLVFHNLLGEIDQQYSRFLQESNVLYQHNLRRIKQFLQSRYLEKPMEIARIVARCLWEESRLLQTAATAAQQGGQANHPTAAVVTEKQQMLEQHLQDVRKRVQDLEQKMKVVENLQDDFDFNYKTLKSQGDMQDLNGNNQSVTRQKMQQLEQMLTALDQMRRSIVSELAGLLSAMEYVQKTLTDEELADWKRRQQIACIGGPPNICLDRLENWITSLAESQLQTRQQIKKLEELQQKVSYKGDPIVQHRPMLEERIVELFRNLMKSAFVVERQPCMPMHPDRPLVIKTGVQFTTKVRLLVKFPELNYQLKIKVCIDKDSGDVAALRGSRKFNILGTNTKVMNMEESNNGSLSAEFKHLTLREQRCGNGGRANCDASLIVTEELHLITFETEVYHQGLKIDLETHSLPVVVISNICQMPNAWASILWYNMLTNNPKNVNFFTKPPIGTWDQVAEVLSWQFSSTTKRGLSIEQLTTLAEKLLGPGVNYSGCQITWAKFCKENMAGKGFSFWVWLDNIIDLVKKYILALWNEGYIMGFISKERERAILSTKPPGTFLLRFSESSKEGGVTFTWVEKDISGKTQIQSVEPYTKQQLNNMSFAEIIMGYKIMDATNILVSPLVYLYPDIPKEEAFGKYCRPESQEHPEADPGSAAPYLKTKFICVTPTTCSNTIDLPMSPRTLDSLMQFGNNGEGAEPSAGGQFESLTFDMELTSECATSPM

The target in the test is STAT3 in MDA-MB-231 and SUM159 cells (human (endogenous in MDA-MB-231 and SUM159)) (UniProt P40763). The test can be described thus: co-IP; lysates of MDA-MB-231 and SUM159 cells; primary antibody or control IgG with protein A/G agarose beads overnight, Western blot of the precipitates. Background: A western blot detects proteins with antibodies after separation by electrophoresis.

B1: DIRAS2 (protein, UniProt Q96HU8 1-199)
chain: MPEQSNDYRVAVFGAGGVGKSSLVLRFVKGTFRESYIPTVEDTYRQVISCDKSICTLQITDTTGSHQFPAMQRLSISKGHAFILVYSITSRQSLEELKPIYEQICEIKGDVESIPIMLVGNKCDESPSREVQSSEAEALARTWKCAFMETSAKLNHNVKELFQELLNLEKRRTVSLQIDGKKSKQQKRKEKLKGKCVIM
Consider B1, for which the binding result is recorded as “binds”.

Source of the values: PMC11900821.
